Results are given in words; binding and its absence hold for the method and conditions named. Binding seen in cells or lysates may run through a third protein. Some binding calls cover weakened binding; strength is not graded here. Sequences can lack the tags named with a protein.

Protein sequences, listed by entry. Tags and fused reporters are not part of them.
UniProt Q640Z6: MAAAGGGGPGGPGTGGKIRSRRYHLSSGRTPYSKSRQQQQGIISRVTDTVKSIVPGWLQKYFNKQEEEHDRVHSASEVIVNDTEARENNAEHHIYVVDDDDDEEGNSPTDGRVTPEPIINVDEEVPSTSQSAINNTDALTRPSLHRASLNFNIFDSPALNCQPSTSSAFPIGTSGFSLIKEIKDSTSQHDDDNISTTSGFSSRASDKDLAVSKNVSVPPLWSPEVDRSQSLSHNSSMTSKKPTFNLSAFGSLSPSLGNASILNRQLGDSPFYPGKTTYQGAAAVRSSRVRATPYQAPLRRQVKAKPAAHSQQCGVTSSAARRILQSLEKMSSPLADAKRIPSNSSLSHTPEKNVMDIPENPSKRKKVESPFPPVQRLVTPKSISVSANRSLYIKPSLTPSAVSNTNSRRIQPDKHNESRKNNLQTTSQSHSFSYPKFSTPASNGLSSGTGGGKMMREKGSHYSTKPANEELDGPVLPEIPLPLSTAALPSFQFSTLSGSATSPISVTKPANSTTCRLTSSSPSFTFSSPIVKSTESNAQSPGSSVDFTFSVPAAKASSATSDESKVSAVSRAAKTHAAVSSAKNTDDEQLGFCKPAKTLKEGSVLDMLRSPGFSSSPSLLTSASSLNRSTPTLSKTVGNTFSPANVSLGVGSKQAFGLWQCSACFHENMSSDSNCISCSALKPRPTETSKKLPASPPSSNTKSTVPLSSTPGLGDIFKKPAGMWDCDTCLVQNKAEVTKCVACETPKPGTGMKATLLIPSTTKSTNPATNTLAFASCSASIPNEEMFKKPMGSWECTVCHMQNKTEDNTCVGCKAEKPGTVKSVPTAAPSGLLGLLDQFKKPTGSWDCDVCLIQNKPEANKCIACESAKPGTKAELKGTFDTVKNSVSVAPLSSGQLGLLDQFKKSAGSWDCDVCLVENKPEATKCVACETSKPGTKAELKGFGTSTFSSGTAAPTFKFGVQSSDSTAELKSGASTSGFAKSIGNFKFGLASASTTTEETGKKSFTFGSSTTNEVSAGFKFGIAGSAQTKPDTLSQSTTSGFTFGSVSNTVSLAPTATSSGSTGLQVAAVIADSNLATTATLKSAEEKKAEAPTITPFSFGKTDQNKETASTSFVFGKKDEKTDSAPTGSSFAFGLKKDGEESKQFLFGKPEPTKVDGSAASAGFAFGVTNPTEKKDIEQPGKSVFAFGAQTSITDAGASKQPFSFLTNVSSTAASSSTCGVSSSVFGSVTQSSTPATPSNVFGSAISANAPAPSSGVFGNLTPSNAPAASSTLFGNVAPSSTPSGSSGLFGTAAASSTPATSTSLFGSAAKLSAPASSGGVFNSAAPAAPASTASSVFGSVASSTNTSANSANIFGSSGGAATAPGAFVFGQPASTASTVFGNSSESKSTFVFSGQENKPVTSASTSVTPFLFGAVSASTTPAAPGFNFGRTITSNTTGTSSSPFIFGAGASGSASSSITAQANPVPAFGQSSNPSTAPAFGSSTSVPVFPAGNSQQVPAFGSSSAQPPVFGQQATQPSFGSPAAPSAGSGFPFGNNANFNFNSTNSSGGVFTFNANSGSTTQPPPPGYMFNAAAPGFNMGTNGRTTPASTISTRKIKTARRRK

This assay addresses T1, GST-hExportin-t (human (from the prefix h in hExportin-t)) (UniProt O43592).
T1 sequence: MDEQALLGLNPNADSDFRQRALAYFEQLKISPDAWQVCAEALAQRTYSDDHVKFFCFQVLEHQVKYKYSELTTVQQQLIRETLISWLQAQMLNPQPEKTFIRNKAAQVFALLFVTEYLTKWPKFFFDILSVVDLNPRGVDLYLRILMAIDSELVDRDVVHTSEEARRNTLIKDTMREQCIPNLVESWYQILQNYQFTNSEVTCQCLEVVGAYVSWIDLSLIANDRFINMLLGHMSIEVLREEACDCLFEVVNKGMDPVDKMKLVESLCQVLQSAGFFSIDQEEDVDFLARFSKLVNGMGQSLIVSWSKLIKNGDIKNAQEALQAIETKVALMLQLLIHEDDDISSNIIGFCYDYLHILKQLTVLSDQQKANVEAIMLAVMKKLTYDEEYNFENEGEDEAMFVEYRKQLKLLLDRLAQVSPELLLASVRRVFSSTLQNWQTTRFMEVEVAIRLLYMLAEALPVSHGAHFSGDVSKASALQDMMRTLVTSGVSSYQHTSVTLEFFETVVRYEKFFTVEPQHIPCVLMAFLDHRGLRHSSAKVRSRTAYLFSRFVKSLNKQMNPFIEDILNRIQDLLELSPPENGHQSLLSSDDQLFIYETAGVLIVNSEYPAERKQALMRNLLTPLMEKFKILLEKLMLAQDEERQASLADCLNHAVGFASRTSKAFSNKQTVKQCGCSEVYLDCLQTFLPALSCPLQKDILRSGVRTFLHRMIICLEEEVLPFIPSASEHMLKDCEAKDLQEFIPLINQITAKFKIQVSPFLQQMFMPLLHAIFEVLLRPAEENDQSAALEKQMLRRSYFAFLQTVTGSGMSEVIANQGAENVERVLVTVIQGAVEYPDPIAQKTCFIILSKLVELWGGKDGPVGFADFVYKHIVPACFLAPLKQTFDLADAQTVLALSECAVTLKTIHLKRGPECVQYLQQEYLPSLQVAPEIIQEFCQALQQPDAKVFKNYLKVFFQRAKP
As to the kind of experiment: pull-down; GST, GST-xCrm1 or GST-hExportin-t (50 ug) on BSA-blocked glutathione agarose beads; 25 uL interphase Xenopus egg extract in 500 uL PBS, 4 C, 2 h, with or without 100 ug 6xHis-RanQ69L-GTP; washed with PBS+0.2% NP-40 then PBS; immunoblot (mAb414, anti-Nup133, anti-Nup98); only the target purified.

For the substance Nup153 (from UniProt Q640Z6 1-1605), the binding entry is reported as “binds”.
